The values that follow come from the supplement of paper PMC7666118.

Chains of the proteins cited; added tags and fusions are not shown. Lines headed by an entry give the natural chain unless they say otherwise; changes in a name come on top.
UniProt Q13330: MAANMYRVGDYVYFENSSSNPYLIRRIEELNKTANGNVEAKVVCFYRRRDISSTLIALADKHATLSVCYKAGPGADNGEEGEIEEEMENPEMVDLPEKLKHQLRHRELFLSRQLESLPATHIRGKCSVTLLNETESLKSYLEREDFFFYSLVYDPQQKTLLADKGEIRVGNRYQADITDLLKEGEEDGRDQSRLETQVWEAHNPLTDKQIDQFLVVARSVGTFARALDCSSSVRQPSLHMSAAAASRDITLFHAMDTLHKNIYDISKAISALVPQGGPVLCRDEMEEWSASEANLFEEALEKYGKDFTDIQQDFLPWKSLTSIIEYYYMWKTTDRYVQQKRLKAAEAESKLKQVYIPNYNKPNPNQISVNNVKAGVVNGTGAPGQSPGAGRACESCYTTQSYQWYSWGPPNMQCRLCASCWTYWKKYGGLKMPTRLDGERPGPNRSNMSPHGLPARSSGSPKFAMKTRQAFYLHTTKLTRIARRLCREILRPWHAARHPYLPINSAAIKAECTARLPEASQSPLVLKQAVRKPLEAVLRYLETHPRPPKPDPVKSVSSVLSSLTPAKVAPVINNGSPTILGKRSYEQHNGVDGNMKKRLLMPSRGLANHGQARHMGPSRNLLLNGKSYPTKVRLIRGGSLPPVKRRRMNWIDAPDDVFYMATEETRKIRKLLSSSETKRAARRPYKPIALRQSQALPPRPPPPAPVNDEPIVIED
UniProt Q9BV79: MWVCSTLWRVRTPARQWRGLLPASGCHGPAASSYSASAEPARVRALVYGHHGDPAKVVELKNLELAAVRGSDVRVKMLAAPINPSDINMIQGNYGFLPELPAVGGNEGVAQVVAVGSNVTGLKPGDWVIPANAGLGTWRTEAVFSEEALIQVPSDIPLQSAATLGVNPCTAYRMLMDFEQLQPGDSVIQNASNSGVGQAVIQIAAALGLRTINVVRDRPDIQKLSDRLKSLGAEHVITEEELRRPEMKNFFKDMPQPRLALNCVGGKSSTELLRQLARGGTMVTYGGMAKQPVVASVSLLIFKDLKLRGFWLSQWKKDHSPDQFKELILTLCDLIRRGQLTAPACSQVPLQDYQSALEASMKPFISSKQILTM
UniProt A0JLT2: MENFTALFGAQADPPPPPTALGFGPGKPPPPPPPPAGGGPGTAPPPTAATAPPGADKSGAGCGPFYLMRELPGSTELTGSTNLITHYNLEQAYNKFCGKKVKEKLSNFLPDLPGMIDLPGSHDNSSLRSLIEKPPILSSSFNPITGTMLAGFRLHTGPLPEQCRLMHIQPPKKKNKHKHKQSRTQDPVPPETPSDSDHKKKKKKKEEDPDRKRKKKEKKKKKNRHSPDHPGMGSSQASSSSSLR
UniProt Q8WV92, whole entry: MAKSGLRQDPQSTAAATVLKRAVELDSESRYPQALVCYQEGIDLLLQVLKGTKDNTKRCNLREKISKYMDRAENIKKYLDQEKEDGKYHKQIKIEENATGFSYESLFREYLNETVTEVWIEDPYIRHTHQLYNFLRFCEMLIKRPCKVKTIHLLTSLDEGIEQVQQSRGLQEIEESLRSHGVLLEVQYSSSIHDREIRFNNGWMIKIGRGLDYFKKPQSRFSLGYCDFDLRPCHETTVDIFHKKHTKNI
UniProt Q8N3F8: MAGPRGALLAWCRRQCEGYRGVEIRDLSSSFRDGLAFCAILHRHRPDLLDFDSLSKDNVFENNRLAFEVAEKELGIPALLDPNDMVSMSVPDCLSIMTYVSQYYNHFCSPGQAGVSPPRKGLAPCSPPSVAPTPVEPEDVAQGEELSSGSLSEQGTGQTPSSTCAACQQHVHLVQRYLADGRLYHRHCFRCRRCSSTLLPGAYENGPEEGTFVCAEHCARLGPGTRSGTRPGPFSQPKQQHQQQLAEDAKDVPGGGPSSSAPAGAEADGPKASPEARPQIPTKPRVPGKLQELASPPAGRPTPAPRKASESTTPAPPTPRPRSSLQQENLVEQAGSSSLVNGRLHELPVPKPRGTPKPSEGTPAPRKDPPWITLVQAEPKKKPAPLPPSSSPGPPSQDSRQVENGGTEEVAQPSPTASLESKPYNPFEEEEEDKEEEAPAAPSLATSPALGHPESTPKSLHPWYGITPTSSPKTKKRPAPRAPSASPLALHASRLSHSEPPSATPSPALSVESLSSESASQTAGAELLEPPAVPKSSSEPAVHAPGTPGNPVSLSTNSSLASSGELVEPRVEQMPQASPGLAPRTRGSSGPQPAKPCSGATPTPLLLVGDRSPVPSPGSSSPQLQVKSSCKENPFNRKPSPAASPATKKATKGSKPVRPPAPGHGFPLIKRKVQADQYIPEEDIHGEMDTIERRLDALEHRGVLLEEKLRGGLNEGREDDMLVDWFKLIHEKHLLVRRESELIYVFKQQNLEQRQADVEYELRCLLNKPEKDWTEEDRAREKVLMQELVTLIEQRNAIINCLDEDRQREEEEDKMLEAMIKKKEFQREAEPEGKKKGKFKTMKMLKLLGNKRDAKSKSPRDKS
UniProt Q86UW6: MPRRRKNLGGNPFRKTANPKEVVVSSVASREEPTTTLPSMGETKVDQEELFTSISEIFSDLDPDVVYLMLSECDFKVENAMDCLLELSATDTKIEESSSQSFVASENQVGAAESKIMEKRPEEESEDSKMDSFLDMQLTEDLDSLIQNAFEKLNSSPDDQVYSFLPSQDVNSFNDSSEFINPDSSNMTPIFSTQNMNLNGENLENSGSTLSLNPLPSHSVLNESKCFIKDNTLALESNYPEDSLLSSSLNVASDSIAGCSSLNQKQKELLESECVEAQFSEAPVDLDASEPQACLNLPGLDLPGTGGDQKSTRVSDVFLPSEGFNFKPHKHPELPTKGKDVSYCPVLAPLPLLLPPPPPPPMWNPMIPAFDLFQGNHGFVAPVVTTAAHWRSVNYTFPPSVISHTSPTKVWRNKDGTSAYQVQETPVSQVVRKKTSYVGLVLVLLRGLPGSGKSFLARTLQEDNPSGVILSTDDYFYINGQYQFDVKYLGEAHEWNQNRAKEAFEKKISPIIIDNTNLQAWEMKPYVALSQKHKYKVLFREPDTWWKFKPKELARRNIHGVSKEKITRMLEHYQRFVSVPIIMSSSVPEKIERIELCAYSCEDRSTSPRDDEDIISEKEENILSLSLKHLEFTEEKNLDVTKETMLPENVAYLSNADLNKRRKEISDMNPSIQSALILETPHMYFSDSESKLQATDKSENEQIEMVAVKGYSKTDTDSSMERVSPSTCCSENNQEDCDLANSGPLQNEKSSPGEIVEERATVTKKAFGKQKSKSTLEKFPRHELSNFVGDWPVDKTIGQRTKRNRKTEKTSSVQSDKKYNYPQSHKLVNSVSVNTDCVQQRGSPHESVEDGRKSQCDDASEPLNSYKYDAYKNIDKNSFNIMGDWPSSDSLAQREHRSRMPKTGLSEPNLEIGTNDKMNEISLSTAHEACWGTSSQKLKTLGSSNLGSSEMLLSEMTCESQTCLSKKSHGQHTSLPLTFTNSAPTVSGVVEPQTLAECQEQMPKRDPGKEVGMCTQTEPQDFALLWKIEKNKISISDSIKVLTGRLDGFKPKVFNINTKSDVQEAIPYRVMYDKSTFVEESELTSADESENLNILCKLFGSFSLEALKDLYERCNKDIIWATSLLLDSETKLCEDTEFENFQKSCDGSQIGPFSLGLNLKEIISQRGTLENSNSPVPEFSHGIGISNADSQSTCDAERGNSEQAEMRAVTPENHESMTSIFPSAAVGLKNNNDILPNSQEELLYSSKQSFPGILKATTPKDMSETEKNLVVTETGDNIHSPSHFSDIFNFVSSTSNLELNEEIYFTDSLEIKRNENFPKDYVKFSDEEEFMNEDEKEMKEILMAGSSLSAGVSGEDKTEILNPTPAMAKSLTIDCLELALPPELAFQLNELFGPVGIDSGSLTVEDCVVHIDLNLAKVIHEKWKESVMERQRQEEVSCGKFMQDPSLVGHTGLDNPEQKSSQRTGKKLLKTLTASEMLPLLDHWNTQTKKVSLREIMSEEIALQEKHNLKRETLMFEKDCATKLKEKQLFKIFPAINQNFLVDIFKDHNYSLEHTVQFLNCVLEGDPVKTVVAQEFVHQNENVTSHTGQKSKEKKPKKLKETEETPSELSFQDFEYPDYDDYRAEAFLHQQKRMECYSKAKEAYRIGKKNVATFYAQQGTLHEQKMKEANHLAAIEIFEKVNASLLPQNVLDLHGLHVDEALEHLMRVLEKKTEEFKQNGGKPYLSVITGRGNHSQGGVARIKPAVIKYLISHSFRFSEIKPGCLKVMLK
UniProt P39210: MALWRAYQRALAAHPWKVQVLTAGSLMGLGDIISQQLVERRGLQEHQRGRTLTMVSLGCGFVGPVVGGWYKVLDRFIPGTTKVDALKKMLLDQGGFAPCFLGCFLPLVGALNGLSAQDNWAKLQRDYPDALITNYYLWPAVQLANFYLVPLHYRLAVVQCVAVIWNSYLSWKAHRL
UniProt Q9BRX9: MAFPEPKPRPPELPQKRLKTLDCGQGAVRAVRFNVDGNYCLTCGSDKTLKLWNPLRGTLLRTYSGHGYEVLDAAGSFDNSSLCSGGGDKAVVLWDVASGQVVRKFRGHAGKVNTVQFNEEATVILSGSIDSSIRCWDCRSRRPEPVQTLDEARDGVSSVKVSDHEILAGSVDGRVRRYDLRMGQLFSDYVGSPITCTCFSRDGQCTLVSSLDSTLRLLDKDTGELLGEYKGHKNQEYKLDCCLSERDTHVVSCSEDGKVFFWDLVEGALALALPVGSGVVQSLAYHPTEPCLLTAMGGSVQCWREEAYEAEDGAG
UniProt O00587: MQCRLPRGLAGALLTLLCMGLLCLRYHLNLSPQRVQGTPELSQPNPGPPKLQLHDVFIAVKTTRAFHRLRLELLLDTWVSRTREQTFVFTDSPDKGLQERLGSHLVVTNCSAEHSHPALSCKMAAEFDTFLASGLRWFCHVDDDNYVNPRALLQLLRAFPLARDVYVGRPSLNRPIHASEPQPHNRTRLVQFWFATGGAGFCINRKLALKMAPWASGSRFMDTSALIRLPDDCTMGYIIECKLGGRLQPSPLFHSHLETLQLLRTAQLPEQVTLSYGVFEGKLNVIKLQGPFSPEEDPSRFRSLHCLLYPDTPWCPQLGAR
UniProt P56278: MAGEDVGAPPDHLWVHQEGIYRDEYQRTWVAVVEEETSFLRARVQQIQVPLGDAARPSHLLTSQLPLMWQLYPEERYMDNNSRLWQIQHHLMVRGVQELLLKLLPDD
UniProt Q9BWT6: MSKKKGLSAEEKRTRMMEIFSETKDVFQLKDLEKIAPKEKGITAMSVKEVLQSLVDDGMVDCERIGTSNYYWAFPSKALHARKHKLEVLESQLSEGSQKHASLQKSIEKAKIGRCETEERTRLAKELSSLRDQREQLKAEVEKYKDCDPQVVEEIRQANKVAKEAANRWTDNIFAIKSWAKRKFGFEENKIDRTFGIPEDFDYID
UniProt Q9NPA3, whole entry: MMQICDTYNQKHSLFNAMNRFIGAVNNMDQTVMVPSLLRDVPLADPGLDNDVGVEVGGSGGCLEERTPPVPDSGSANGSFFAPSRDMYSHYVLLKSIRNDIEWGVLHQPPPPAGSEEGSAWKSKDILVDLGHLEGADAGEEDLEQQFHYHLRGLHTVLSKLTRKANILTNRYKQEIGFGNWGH
UniProt O95544: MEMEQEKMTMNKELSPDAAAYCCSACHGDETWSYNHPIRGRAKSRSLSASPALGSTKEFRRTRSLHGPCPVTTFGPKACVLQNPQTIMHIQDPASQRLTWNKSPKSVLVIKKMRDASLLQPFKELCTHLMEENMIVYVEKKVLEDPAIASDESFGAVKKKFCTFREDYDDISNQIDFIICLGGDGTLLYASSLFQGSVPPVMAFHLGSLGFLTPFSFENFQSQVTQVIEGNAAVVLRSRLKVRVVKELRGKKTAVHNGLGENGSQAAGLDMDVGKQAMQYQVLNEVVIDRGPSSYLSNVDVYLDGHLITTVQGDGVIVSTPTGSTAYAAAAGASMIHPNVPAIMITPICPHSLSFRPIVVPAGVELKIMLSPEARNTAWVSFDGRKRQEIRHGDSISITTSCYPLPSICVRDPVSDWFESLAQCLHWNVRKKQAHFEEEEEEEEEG
UniProt P26038, whole entry: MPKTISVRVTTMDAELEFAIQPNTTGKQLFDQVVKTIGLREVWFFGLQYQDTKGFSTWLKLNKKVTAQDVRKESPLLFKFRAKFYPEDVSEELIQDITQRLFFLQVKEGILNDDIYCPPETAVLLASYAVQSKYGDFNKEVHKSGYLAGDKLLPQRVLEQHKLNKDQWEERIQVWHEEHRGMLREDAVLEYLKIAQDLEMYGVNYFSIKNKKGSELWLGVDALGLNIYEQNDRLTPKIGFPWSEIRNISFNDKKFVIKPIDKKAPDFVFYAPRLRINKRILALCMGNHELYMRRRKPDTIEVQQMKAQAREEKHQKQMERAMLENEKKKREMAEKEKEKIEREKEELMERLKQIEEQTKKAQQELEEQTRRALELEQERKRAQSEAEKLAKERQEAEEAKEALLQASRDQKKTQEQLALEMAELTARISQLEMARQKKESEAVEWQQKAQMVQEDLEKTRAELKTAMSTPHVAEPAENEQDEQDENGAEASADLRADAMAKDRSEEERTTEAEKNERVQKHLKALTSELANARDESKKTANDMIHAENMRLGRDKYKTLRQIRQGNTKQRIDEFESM

This is one part of the list.

Compound in the assay: COc1ccc(Cn2ccc3cc(C)c(C(=O)NO)cc32)cc1
As to the kind of experiment: dose-dependent thermal stabilisation call (2D-TPP, DLPTP, 10% FDR) (binary (1 = stabilised)); higher = stabilised by the compound. Conditions: system: HL-60 intact cells; concentration range 0.04-10 µM. As for the experimental part:
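2D thermal proteome profiling in intact HL-60 cells treated with BRD-3811 (0, 0.04, 0.29, 2, 10 uM) for 90 min at 37 C, then heated 3 min at one of 12 temperatures (42-63.9 C). Soluble protein was quantified by TMT10 MS. The value is the DLPTP call of the paper: dose-dependent thermal stabilisation over all temperatures at 10% FDR (F-test of a dose-response against a flat model); one experiment, one call per tested protein.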
With MTA1 (UniProt Q13330), the “dose-dependent thermal stabilisation call” value is inactive: 0.

Consider MGAT5 (UniProt Q09328), for which the “dose-dependent thermal stabilisation call” value is inactive: 0.

As to MUTED (UniProt Q8TDH9), the “dose-dependent thermal stabilisation call” value is inactive: 0. To MRPL10 (UniProt Q7Z7H8) belongs inactive: 0. Take MRPL28 (UniProt Q13084): the “dose-dependent thermal stabilisation call” value is inactive: 0. In the case of MSH6 (UniProt P52701) it was inactive: 0. MIB1 (UniProt Q86YT6): the “dose-dependent thermal stabilisation call” value was inactive: 0. For MFSD6 (UniProt Q6ZSS7), the “dose-dependent thermal stabilisation call” value is inactive: 0. Take MTMR3 (UniProt Q13615): the “dose-dependent thermal stabilisation call” value is inactive: 0. As for MRPL23 (UniProt Q16540), the “dose-dependent thermal stabilisation call” value is inactive: 0.

MECR (UniProt Q9BV79): the “dose-dependent thermal stabilisation call” value is inactive: 0. Regarding MED19 (UniProt A0JLT2), the “dose-dependent thermal stabilisation call” value was inactive: 0. Turning to MSH3 (UniProt P20585), the “dose-dependent thermal stabilisation call” value is inactive: 0. As to MRPS26 (UniProt Q9BYN8), the “dose-dependent thermal stabilisation call” value is inactive: 0.

MICAL1 (UniProt Q8TDZ2): the “dose-dependent thermal stabilisation call” value is inactive: 0.

Turning to MITD1 (UniProt Q8WV92), the “dose-dependent thermal stabilisation call” value was inactive: 0. Consider MICALL1 (UniProt Q8N3F8), for which the “dose-dependent thermal stabilisation call” value is inactive: 0. For N4BP2 (UniProt Q86UW6), the “dose-dependent thermal stabilisation call” value is inactive: 0. For the target MPV17 (UniProt P39210), the “dose-dependent thermal stabilisation call” value was inactive: 0. With MORG1 (UniProt Q9BRX9), the “dose-dependent thermal stabilisation call” value was inactive: 0.

MFNG (UniProt O00587): the “dose-dependent thermal stabilisation call” value was inactive: 0. As for MTRR (UniProt Q9UBK8), the “dose-dependent thermal stabilisation call” value is inactive: 0.

Regarding MRPL18 (UniProt Q9H0U6), the “dose-dependent thermal stabilisation call” value is inactive: 0. In the case of MTCP1 (UniProt P56278) it was inactive: 0; in that of MND1 (UniProt Q9BWT6), inactive: 0. As for MIG12 (UniProt Q9NPA3), the “dose-dependent thermal stabilisation call” value was inactive: 0. In the case of NADK (UniProt O95544), the “dose-dependent thermal stabilisation call” value was inactive: 0.

As for METTL11A (UniProt Q9BV86), the “dose-dependent thermal stabilisation call” value was inactive: 0. In the case of MRE11A (UniProt P49959), the “dose-dependent thermal stabilisation call” value was inactive: 0.

For MRPL55 (UniProt Q7Z7F7), the “dose-dependent thermal stabilisation call” value is inactive: 0.

Turning to MRPL15 (UniProt Q9P015), the “dose-dependent thermal stabilisation call” value is inactive: 0. To MRPL16 (UniProt Q9NX20) belongs inactive: 0; to MINPP1 (UniProt Q9UNW1), inactive: 0; to MRPL24 (UniProt Q96A35), inactive: 0. In the case of MRPS17 (UniProt Q9Y2R5), the “dose-dependent thermal stabilisation call” value was inactive: 0. For the target MSN (UniProt P26038), the “dose-dependent thermal stabilisation call” value is inactive: 0.
